In the assay the target is GABAA receptors in SPMs. On the set-up: species or system rat. The note with it: read-out: EC50 for reducing ^125I-MmTX2 binding to SPMs.

The structures appear in SMILES notation.

A word on the EC50: it is the midpoint of the concentration-response curve. Turning to `NCCCC(=O)O` [GABA, γ-aminobutyric acid], the EC50 is 2.7 µM.
